This is a selection; strong and weak results do not stand in their true shares. Small differences around the control level are noise.

Chains of the proteins cited; added tags and fusions are not shown. Lines headed by an entry give the natural chain unless they say otherwise; changes in a name come on top.
UniProt P75931: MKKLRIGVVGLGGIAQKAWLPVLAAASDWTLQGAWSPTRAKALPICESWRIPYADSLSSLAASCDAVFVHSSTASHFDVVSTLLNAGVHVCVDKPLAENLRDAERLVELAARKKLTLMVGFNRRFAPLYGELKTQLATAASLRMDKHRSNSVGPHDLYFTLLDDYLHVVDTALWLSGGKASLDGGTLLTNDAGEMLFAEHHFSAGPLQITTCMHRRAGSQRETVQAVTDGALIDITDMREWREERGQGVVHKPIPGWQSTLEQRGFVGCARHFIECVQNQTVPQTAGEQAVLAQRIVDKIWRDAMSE
UniProt P75975: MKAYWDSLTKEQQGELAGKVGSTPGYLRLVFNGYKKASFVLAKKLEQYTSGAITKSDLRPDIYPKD
UniProt P76537: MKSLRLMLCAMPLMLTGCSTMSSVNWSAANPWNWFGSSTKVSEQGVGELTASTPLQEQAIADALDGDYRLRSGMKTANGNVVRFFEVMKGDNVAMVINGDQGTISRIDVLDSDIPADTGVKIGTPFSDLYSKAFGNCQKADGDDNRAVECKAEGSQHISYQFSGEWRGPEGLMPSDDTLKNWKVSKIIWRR
UniProt P75992: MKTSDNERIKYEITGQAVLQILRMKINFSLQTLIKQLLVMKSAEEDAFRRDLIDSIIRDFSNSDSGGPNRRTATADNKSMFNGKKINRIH
UniProt P75849: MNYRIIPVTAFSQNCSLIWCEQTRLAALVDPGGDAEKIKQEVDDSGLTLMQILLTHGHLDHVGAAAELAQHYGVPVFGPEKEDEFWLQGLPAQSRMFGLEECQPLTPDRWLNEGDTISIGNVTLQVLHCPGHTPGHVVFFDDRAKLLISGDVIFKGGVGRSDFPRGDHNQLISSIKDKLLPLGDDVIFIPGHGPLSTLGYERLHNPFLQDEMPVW
UniProt P76406: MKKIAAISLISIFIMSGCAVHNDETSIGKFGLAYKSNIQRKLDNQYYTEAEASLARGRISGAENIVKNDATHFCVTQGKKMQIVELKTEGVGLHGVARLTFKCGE
UniProt P76204: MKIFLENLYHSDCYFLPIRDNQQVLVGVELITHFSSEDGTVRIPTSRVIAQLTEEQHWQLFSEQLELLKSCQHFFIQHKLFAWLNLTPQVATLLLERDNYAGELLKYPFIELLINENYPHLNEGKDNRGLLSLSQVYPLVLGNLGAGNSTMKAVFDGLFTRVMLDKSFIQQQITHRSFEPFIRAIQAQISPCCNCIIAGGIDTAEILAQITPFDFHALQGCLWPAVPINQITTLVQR
UniProt P75862: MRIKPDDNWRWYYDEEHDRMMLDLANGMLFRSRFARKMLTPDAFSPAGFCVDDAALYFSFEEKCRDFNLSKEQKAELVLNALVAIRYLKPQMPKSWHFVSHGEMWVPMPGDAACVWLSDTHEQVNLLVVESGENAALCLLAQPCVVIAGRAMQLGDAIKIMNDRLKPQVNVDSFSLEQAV
UniProt P77212: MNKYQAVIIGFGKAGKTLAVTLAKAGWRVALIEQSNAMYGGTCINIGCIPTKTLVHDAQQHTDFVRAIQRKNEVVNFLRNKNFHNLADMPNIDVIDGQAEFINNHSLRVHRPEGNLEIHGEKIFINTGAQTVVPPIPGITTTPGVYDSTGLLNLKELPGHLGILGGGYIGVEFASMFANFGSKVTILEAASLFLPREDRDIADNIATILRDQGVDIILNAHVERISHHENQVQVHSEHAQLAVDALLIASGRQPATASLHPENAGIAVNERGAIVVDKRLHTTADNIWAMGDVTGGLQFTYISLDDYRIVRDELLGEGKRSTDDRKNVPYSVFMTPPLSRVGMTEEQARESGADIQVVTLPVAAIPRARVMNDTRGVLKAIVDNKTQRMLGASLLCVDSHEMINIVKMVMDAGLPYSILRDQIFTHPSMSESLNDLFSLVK
UniProt P77218: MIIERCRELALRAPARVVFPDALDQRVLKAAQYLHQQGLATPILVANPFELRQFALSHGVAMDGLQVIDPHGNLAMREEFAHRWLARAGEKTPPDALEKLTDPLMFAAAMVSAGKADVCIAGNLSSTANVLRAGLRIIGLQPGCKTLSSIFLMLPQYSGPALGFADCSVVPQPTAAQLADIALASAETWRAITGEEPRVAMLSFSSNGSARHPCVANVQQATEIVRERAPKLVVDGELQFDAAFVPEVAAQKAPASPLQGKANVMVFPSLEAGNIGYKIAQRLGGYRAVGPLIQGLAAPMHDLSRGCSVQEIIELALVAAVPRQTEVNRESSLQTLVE
UniProt P76117: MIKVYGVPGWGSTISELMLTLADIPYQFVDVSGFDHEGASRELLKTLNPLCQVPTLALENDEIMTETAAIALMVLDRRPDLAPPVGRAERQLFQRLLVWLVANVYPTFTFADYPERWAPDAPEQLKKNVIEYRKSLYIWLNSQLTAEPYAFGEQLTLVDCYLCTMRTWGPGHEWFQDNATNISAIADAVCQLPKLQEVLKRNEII
UniProt P76213: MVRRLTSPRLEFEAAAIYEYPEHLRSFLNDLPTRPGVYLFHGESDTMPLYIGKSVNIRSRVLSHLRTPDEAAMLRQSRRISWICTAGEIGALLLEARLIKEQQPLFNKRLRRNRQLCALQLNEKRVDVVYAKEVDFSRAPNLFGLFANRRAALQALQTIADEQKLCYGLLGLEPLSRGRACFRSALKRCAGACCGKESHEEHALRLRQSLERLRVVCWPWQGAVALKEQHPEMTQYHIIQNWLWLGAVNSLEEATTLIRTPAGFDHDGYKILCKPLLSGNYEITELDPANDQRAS
UniProt P75734: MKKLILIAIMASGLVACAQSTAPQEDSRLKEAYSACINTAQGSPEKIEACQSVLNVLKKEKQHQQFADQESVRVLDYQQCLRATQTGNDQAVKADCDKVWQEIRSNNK
UniProt P76237: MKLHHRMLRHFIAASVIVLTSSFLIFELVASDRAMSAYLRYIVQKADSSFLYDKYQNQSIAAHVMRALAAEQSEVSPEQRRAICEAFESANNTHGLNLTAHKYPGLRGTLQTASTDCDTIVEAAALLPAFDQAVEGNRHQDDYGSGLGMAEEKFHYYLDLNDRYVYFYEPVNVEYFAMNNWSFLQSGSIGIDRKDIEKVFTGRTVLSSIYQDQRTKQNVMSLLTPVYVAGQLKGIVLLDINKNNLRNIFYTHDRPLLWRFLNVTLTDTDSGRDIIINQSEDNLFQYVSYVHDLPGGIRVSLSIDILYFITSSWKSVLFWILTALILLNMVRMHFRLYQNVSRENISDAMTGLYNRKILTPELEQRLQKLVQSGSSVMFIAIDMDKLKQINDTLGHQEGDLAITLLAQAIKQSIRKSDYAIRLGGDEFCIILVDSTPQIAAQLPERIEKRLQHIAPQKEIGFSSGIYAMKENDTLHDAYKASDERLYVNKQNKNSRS
UniProt P75820: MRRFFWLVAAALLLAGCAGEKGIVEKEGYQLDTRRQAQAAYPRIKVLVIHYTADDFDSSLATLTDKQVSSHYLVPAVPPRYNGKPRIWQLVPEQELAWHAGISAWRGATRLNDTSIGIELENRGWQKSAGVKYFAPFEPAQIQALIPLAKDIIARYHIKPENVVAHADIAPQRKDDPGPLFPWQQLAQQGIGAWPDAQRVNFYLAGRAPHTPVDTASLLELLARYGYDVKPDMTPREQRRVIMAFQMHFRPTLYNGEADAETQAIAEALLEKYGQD
UniProt P76549: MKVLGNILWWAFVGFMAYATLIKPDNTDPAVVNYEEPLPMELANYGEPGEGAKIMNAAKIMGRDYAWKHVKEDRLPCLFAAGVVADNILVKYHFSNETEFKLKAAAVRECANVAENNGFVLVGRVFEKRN
UniProt P76015: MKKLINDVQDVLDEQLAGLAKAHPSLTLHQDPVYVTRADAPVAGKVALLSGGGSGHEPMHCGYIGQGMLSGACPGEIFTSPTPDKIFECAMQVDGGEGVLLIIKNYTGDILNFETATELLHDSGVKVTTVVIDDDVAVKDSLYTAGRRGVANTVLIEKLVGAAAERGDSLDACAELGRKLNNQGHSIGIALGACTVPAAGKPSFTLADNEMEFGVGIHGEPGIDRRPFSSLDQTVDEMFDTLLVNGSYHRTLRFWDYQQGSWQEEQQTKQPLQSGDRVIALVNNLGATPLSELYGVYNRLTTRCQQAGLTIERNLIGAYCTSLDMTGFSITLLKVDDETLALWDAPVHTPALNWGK
UniProt P76112: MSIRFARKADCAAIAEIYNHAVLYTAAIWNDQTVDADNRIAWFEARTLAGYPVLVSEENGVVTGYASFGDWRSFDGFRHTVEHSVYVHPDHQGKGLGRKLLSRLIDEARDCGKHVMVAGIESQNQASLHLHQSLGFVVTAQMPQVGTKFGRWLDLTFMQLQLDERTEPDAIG
UniProt P76008: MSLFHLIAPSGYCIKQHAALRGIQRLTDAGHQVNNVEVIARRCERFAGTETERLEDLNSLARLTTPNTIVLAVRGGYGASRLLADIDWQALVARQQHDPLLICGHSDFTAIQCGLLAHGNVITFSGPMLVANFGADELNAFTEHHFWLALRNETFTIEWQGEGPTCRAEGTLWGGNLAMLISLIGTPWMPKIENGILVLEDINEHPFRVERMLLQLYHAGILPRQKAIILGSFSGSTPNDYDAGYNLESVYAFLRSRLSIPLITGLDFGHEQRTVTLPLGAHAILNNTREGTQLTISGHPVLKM
UniProt P75616: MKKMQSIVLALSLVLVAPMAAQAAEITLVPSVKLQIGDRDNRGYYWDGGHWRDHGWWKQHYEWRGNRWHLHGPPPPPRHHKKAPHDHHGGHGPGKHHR
UniProt P76541: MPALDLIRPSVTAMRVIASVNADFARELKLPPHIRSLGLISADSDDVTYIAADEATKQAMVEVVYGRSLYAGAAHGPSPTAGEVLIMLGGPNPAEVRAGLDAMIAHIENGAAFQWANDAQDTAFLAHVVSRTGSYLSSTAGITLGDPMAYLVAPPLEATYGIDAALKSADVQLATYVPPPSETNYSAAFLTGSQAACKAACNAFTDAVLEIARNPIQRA
UniProt P76220: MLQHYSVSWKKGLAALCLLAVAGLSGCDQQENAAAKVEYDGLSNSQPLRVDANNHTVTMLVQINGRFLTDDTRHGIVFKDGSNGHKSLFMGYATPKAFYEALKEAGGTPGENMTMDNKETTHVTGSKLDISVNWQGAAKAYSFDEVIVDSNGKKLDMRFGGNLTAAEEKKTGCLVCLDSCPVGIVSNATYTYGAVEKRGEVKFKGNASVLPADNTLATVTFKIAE
UniProt P76104: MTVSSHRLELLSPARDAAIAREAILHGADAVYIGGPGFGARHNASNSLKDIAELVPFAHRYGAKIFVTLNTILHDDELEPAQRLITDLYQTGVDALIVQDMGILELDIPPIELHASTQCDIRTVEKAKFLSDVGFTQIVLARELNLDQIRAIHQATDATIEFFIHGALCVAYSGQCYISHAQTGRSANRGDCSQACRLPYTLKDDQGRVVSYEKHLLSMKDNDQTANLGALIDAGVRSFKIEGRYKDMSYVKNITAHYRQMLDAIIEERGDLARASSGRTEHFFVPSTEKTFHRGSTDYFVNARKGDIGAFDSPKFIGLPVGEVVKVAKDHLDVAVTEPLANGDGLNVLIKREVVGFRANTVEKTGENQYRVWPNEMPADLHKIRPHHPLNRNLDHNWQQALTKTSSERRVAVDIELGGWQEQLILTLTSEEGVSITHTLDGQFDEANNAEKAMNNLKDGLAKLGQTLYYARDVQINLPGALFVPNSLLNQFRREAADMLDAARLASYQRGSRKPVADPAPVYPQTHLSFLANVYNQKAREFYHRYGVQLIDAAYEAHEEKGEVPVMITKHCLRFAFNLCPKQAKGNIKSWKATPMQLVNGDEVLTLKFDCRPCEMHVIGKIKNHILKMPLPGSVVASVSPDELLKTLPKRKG
UniProt P76548: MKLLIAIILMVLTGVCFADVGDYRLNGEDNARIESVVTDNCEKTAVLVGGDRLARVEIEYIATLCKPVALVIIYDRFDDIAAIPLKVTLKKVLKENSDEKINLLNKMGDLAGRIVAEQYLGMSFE
UniProt P75672: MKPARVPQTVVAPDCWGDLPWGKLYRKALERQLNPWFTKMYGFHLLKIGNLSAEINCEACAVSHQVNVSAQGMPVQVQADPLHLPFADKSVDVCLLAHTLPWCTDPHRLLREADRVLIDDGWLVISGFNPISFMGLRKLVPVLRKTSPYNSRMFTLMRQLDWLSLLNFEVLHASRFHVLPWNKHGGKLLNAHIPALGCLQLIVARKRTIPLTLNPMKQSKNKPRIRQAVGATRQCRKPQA
UniProt P76361: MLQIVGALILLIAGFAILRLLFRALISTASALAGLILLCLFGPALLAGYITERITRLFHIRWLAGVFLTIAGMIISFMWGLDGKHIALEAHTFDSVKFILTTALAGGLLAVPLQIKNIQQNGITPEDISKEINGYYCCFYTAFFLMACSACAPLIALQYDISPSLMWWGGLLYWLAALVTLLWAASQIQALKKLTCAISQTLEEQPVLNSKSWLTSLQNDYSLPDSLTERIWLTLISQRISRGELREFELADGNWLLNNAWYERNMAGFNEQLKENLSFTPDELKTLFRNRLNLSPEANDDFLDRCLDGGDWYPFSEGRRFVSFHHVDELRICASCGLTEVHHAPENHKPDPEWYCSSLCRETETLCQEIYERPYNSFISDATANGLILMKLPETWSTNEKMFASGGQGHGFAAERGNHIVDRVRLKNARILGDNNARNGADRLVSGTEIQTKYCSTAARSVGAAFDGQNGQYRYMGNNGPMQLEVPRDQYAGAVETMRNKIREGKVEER

Here are results for 40 targets from the supplement of paper PMC12819154, “High-throughput peptide-centric local stability assay extends protein–ligand identification to membrane proteins, tissues and bacteria” (Nature Structural & Molecular Biology, 2025).
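Note: lysate desalted by size exclusion to strip endogenous ATP, peptide intensities built from DIA-NN precursor signals, and peptides missing any value discarded before comparison.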

Compound in the experiment: Nc1ncnc2c1ncn2[C@@H]1O[C@H](COP(=O)(O)OP(=O)(O)OP(=O)(O)O)[C@@H](O)[C@H]1O [adenosine 5'-triphosphate]
Briefly: log2 fold change of tryptic peptide abundance, ligand vs vehicle (limited proteolysis) (log2 ratio); higher = more trypsin-susceptible (destabilized). The settings on record: ligand concentration: 5 mM; sample: E. coli desalted lysate; replicate design: treated before aliquoting. As to the method:
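HT-PELSA: desalted E. coli K-12 BW25113 lysate (with 12 mM MgCl2) incubated with 5 mM ATP (pH 7) or water for 30 min at 25 C, then a 4 min trypsin pulse at 22 C. Peptides were quantified by DIA-MS (4 replicates). Value is the peptide log2 fold change (treated/control); negative = stabilized. Scale: negative = ligand-stabilized region.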
Consider “UniProt P75931 (peptide sequence: ALPICESWR, peptide start residue: 42)”, for which the log2 fold change was 0.468.
With “UniProt P75975 (peptide sequence: VGSTPGYLR, peptide start residue: 20)”, the log2 fold change is -0.262.
“UniProt P76082 (peptide sequence: HSPLALQAAK, peptide start residue: 197)”: the log2 fold change came out at 0.5.
The same measure for “UniProt P76537 (peptide sequence: IGTPFSDLYSK, peptide start residue: 122)”: 0.287; for “UniProt P75992 (peptide sequence: SAEEDAFRR, peptide start residue: 42)”: 0.68; for “UniProt P75801 (peptide sequence: KSFDEDLK, peptide start residue: 307)”: -0.774.
Consider “UniProt P75849 (peptide sequence: LLISGDVIFK, peptide start residue: 146)”, for which the log2 fold change is 0.35.
With “UniProt P76406 (peptide sequence: ISGAENIVK, peptide start residue: 59)”, the log2 fold change was -0.253.
Under “UniProt P77221 (peptide sequence: DVQGPILR, peptide start residue: 209)” stands 0.43.
Take “UniProt P71242 (peptide sequence: RYQHQVLLSR, peptide start residue: 83)”: the log2 fold change was found to be 0.308.
Regarding “UniProt P76520 (peptide sequence: QYYEANLALK, peptide start residue: 186)”, the log2 fold change is -0.132.
The same measure for “UniProt P76004 (peptide sequence: KAGQPWEK, peptide start residue: 113)”: -0.127; for “UniProt P76204 (peptide sequence: AVFDGLFTR, peptide start residue: 153)”: 0.339; for “UniProt P75862 (peptide sequence: YLKPQMPK, peptide start residue: 87)”: 0.804.
As for “UniProt P77212 (peptide sequence: TLVHDAQQHTDFVR, peptide start residue: 53)”, the log2 fold change was -0.957.
Consider “UniProt P76072 (peptide sequence: AGEATEQASAAAR, peptide start residue: 341)”, for which the log2 fold change is -0.0808.
Under “UniProt P77218 (peptide sequence: APASPLQGK, peptide start residue: 253)” stands 0.481; under “UniProt P77214 (peptide sequence: FTITPQTK, peptide start residue: 73)”, 0.375; under “UniProt P76117 (peptide sequence: WAPDAPEQLKK, peptide start residue: 117)”, 0.613.
Consider “UniProt P76213 (peptide sequence: EQQPLFNK, peptide start residue: 101)”, for which the log2 fold change is -0.674.
On to “UniProt P75734 (peptide sequence: VLDYQQCLR, peptide start residue: 74)”, for which the log2 fold change was found to be 0.394.
For the target “UniProt P76655 (peptide sequence: LYLSGTSQR, peptide start residue: 622)”, the log2 fold change is -0.499.
On to “UniProt P76237 (peptide sequence: LYVNKQNK, peptide start residue: 485)”, for which the log2 fold change stood at 0.249.
The same measure for “UniProt P75820 (peptide sequence: EGYQLDTR, peptide start residue: 27)”: -0.246.
Turning to “UniProt P76549 (peptide sequence: YHFSNETEFK, peptide start residue: 92)”, the log2 fold change is -0.219.
Turning to “UniProt P76015 (peptide sequence: AHPSLTLHQDPVYVTR, peptide start residue: 22)”, the log2 fold change was -1.08.
For the target “UniProt P76254 (peptide sequence: ASQQSMLICCSRAK, peptide start residue: 300)”, the log2 fold change was -0.666.
“UniProt P76112 (peptide sequence: IAWFEAR, peptide start residue: 40)”: the log2 fold change was -0.48.
The same measure for “UniProt P75746 (peptide sequence: EEVFADR, peptide start residue: 157)”: -0.755; for “UniProt P76008 (peptide sequence: LTDAGHQVNNVEVIAR, peptide start residue: 26)”: -0.0947.
“UniProt P75616 (peptide sequence: WHLHGPPPPPR, peptide start residue: 68)”: the log2 fold change was -0.338.
Turning to “UniProt P76541 (peptide sequence: VIASVNADFAR, peptide start residue: 16)”, the log2 fold change was -0.448.
The same measure for “UniProt P76220 (peptide sequence: FGGNLTAAEEK, peptide start residue: 159)”: 0.608; for “UniProt P76104 (peptide sequence: ELNLDQIR, peptide start residue: 143)”: 0.482; for “UniProt P75823 (peptide sequence: EAWEFTR, peptide start residue: 151)”: -0.4.
The same measure for “UniProt P76548 (peptide sequence: IESVVTDNCEK, peptide start residue: 33)”: 0.32.
Take “UniProt P76001 (peptide sequence: INQTTTKMLFMCRE, peptide start residue: 109)”: the log2 fold change was -0.376.
With “UniProt P75672 (peptide sequence: KTSPYNSR, peptide start residue: 145)”, the log2 fold change was -0.236.
With “UniProt P76361 (peptide sequence: ILGDNNAR, peptide start residue: 431)”, the log2 fold change stood at 0.239.
As to “UniProt P76372 (peptide sequence: QNLLDIESLKVDDLDIHAYR, peptide start residue: 260)”, the log2 fold change was found to be 0.439.
